{"source": "patent US10767162B2", "about": "“Methods for differentiation” (PRESIDENT AND FELLOWS OF HARVARD COLLEGE, priority 2014, dated 2020)", "system": "Hnf4α-overexpressing ES cells", "test": "Hepatoblast-like differentiation of Hnf4α-overexpressing ES cells, alphafetoprotein (AFP) expression", "assay_type": "cell-based", "conditions": "added to growth factor-free media; day 4", "source_text": "FIGS. 13A-13B depict hepatoblast-like cells. […] Alpha-fetoprotein mRNA expression after 4 days in media of different growth factor content. FIG. 13B depicts a time course of gene expression for hepatic lineage factors and hepatocyte markers in growth factor-free (N2B27) media.\nOne essential lineage specifying factor for hepatocytes is hepatic nuclear factor 4α (Hnf4α)(6). Switching of Hnf4α-overexpressing ES cells to growth factor-free or growth factor-reduced media led to the activation of a subset of hepatic genes. At day 0, LIF and doxycycline were removed and the media was either switched or kept to 15% FBS. By day 4, there were high levels of alphafetoprotein (AFP) that could be detected in the cells differentiated in the growth factor-free or growth factor-reduced media and less than 10% the level of AFP in cells in 15% FBS (FIG. 13A and FIG. 16). AFP expression could be confirmed by immunostaining. While this activation by growth factor withdrawal was similar to the pattern seen in previous cell types, there was an additional interesting point of variation compared to other lineages examined so far. […] Albumin production was also detected, as was Sox17, Pparα, Cdh3, Tbx3, Krt18, Hhex, Lrh1, C/EBPα, Hnf1a, and Hnf1b. […]\nRNA isolation and qPCR. […] Quantitative PCR was performed using Bio-rad's SYBR™ green Supermix. […]", "note": "At least one structure is not confirmed: it was looked up by name or label, or the drawing left a doubt.", "data": [{"smiles": "C[C@@H]1C[C@H]2[C@@H]3CCC4=CC(=O)C=C[C@]4(C)[C@@]3(F)[C@@H](O)C[C@]2(C)[C@@]1(O)C(=O)CO", "note": "[Dexamethasone]", "values": [{"measurement": "AFP expression", "result": "did not have any additional effect"}]}]}
